These are yes or no findings as the source states them, for the method shown. Binding seen in cells or lysates may run through a third protein. Some binding calls cover weakened binding; strength is not graded here.
Assays:
[1] = target: HA-VHL (UniProt P40337); assay: co-IP; OVCAR8 cells transfected with Myc-IL-32β, HA-VHL and Flag-PKCδ together, untreated or treated with 150 μM CoCl2 for 24 h; lysate immunoprecipitated with anti-HA antibody, immunoblot
[2] = target: HA-VHL (UniProt P40337); assay: co-IP; HEK 293T cells transfected with Myc-IL-32β, HA-VHL and Flag-PKCδ together, normoxia or hypoxia chamber for 24 h; lysate immunoprecipitated with anti-HA antibody, immunoblot
[3] = target: Flag-PKCδ (UniProt Q05655); assay: co-IP; HEK 293T cells transfected with Myc-IL-32β, HA-VHL and Flag-PKCδ together; lysate immunoprecipitated with anti-Flag antibody, immunoblot

By UniProt entry, the sequences of proteins in these tests, tags left out. Where a name states a change or a piece, a line headed by the entry shows the natural chain unless it says otherwise.
UniProt P40337: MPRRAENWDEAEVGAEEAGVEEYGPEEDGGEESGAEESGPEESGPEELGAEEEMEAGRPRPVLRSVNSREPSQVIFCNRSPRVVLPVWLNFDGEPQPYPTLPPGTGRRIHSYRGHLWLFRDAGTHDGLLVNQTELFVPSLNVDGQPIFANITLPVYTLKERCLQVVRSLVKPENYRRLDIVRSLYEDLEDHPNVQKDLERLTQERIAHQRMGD
UniProt Q05655: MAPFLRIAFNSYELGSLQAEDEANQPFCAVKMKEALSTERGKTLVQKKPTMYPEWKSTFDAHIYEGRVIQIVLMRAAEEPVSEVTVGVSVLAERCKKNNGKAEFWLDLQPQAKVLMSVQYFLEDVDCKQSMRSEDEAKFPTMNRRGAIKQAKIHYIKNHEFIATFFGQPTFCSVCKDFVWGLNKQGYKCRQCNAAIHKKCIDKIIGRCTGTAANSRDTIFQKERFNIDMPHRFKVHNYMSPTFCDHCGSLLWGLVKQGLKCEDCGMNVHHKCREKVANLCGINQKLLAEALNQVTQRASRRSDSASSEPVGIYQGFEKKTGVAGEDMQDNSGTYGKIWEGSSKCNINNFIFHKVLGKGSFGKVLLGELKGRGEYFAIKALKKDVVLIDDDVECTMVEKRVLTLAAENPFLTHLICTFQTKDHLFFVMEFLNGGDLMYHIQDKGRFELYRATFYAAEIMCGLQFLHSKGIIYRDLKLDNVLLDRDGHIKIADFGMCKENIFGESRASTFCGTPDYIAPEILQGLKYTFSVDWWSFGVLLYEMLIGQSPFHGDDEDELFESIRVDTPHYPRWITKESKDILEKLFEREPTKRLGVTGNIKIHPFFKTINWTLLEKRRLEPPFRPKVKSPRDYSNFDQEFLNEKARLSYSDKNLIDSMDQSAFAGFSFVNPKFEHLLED

Substance	binding [1]	binding [2]	binding [3]
Flag-PKCδ (from UniProt Q05655 1-676) (enzyme)	binds	binds	
HA-VHL (from UniProt P40337 1-213)			binds

Reference: publication PMC5642520
